Article PMC3125270

Target: T1, N-Strep/Flag-Her3, full length (zebrafish) (UniProt Q90465)
T1 sequence: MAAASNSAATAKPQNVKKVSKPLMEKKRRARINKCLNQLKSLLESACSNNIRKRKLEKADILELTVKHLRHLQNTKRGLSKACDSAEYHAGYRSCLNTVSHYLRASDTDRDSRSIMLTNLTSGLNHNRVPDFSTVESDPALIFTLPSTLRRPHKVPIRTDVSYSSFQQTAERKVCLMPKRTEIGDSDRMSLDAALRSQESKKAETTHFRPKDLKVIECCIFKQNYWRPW
Assay: pull-down; co-affinity purification: N-SF-Her3 and myc-Her8a co-expressed in HEK293T; cleared lysate (TBS, 0.5% NP-40) on Strep-Tactin resin 2 h, eluted with desthiobiotin; blots with anti-FLAG and anti-Myc

binding: binds
Substance: Myc-tagged Her8a, full length (zebrafish)

Results are given in words; binding and its absence hold for the method and conditions named. In cells and extracts the contact can be indirect. Binding calls can cover weak binding; strength is not graded here. Sequences can lack the tags named with a protein.
